Results published in the supplement of paper PMC6411743.
± gives the standard deviation of the averaged measurements. Only a part is listed here, and it is no random draw.

The chains behind the UniProt entries cited, without tags or fusion partners. Where a name states a change or a piece, a line headed by the entry shows the natural chain unless it says otherwise.
UniProt Q8N1F8: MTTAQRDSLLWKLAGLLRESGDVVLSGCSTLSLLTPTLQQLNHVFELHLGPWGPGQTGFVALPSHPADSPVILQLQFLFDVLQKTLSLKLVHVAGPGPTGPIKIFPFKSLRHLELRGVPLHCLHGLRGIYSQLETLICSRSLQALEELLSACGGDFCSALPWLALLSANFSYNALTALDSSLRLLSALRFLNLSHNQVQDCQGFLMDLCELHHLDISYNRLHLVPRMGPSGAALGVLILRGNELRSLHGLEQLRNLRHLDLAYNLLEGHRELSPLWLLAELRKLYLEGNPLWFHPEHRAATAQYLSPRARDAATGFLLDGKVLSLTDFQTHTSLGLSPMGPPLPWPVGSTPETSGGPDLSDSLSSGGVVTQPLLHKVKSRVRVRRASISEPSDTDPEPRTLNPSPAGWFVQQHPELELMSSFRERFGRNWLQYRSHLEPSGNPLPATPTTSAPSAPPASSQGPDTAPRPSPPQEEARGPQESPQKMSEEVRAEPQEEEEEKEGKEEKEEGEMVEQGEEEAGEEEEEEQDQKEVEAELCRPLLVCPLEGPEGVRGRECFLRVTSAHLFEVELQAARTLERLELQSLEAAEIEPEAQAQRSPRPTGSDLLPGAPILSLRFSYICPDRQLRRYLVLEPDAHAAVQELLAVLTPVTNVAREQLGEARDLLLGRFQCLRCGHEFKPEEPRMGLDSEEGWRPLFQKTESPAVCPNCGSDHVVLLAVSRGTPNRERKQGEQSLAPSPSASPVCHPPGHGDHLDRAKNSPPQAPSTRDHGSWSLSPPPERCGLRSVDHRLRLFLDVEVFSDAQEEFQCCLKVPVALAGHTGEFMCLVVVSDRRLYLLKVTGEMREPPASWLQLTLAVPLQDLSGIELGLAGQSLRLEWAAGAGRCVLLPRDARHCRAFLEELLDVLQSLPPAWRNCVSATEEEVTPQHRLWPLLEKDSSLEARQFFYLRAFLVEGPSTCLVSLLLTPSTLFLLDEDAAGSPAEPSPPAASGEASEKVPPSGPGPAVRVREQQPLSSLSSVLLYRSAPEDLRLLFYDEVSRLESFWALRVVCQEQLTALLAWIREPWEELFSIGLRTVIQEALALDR
UniProt Q6NW29: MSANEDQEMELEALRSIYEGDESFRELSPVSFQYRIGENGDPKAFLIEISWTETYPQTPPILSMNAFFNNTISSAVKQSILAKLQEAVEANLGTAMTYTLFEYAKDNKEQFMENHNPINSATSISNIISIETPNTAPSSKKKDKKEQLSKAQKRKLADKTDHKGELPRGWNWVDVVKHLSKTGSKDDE
UniProt O00244: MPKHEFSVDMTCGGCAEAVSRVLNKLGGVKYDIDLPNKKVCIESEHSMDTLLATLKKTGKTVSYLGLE
UniProt Q9BY41: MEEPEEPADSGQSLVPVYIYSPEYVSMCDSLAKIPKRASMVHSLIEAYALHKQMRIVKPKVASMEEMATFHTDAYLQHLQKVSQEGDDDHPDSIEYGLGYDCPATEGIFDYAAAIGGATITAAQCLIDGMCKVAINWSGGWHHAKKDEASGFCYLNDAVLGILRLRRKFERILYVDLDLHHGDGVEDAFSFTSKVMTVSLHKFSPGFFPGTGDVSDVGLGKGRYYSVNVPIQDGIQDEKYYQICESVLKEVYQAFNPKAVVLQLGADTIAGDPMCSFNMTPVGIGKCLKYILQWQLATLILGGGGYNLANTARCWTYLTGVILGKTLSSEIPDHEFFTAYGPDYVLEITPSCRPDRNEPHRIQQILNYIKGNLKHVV
UniProt P43897: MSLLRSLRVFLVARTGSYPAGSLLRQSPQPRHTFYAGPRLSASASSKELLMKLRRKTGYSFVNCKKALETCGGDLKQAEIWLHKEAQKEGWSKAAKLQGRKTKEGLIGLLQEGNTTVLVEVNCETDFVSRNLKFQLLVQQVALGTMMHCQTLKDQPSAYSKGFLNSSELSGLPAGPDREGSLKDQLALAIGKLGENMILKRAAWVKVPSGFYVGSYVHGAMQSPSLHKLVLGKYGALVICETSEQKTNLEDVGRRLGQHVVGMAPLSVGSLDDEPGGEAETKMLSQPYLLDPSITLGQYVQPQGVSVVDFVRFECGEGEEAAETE
UniProt O94925: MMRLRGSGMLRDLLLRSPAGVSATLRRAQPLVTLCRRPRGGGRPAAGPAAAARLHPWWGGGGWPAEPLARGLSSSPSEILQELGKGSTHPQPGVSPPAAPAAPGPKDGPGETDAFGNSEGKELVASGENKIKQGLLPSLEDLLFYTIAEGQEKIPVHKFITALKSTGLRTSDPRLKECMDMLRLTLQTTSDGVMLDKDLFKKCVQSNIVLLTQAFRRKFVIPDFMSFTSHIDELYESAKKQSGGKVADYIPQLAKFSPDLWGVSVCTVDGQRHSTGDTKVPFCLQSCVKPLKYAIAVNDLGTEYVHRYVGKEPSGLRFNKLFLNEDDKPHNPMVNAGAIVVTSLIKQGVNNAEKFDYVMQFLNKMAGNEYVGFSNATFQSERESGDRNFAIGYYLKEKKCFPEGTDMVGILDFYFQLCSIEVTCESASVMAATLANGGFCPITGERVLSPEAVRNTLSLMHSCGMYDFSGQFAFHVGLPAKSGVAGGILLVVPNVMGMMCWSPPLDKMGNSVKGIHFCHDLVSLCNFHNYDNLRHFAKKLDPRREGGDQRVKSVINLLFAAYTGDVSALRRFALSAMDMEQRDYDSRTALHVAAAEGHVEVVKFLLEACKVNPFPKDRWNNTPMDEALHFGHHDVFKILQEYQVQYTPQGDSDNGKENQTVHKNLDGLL
UniProt P13010: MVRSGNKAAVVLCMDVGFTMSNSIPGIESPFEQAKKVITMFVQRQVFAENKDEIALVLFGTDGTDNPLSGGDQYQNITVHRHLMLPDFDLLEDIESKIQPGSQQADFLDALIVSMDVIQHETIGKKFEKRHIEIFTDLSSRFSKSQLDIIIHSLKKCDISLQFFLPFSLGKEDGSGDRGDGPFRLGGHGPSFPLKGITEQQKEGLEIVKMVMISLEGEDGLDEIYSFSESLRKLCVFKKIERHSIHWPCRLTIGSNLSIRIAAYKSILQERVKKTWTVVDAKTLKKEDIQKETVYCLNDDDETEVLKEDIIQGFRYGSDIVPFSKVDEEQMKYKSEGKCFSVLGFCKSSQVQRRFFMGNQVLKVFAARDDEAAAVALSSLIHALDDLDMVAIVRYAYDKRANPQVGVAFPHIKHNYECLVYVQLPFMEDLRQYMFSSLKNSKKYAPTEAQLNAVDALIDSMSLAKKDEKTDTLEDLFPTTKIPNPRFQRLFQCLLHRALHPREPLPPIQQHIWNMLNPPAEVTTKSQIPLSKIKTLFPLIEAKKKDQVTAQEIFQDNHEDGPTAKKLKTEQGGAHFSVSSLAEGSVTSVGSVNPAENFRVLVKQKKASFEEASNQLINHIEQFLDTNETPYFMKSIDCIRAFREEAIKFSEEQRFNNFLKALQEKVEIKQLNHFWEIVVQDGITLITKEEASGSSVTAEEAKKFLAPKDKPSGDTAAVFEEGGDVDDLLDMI
UniProt Q96JI7: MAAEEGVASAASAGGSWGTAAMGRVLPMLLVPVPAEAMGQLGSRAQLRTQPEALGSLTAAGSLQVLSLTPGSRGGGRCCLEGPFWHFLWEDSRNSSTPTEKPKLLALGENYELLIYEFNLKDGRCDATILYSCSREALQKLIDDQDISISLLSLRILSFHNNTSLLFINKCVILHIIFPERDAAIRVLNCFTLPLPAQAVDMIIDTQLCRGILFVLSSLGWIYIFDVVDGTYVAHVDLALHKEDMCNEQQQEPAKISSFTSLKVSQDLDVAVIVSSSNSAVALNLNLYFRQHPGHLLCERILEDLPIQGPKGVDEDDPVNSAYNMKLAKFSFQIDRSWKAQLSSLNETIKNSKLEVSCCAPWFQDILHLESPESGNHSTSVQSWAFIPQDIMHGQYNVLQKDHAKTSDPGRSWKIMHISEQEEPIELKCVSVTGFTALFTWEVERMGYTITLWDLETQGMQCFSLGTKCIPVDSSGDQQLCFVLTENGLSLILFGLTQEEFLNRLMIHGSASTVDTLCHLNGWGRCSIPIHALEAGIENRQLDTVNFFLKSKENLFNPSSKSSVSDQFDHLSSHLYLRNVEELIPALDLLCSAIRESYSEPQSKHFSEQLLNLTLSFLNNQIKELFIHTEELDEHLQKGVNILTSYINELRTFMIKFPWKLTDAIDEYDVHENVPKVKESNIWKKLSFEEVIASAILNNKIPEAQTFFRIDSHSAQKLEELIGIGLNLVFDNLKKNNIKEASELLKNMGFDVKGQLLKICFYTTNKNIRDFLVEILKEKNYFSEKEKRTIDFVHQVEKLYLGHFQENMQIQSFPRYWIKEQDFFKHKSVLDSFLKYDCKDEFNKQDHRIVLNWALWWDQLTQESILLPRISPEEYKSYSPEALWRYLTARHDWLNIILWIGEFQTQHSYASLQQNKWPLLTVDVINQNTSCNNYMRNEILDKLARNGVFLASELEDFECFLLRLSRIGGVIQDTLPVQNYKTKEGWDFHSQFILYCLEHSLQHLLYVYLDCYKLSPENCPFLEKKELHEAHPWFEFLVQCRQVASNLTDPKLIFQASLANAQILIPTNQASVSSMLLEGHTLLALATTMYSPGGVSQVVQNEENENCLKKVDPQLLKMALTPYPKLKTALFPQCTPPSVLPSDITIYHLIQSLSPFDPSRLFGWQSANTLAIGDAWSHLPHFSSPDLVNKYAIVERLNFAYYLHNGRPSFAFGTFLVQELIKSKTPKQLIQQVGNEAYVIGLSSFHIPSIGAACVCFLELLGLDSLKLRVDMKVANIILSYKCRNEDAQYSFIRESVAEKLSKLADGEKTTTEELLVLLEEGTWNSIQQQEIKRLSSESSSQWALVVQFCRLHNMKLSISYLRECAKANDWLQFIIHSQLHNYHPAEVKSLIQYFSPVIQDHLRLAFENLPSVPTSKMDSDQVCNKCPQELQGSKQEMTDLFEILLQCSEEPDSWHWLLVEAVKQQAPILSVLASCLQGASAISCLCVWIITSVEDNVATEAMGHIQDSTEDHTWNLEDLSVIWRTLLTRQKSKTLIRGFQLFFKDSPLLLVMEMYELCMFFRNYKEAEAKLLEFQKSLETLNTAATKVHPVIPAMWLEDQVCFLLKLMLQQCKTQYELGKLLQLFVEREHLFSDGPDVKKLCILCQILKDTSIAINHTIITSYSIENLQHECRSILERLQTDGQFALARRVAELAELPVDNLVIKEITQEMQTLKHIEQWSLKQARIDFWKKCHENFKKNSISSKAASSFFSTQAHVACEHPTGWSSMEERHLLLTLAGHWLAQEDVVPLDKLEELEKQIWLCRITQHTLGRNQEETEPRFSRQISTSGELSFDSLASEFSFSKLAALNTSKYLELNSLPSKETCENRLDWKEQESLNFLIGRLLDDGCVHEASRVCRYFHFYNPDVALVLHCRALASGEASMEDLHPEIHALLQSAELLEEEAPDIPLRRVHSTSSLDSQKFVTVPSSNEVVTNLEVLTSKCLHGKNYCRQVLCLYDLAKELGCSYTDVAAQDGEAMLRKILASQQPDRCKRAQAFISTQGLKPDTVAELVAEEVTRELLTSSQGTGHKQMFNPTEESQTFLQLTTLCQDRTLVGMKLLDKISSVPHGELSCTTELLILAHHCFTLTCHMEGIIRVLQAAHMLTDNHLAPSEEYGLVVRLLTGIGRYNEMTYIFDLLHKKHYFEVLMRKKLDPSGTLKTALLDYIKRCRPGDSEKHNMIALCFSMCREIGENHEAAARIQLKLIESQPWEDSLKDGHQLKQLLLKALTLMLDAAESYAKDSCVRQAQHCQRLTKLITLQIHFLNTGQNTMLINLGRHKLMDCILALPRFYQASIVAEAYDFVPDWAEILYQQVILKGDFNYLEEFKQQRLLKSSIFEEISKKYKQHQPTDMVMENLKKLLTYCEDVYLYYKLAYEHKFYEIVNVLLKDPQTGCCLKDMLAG
UniProt O96015: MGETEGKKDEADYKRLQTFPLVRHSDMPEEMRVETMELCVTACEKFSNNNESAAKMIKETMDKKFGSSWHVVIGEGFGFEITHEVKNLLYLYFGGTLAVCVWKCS
UniProt Q99755: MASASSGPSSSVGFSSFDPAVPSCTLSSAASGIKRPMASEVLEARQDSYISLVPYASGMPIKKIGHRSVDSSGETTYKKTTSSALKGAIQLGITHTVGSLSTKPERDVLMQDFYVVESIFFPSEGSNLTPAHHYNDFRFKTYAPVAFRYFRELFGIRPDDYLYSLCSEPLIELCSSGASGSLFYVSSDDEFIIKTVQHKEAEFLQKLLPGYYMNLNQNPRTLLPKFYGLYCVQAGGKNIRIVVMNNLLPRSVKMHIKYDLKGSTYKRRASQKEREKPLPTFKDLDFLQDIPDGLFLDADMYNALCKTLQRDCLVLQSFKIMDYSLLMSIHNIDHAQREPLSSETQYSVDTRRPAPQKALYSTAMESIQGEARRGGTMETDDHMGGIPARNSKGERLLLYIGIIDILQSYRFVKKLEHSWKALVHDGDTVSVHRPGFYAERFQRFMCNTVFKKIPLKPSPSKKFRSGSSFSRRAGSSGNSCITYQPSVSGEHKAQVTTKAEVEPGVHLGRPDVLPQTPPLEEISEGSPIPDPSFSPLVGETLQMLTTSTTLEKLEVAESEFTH

Compound: Nc1ncnc2c1ncn2[C@@H]1O[C@H](COP(=O)(O)OP(=O)(O)NP(=O)(O)O)[C@@H](O)[C@H]1O [adenylyl imidodiphosphate]
Experiment: NP40-soluble protein abundance relative to vehicle (solubility fold change) (ratio); higher = more soluble protein in presence of AMP-PNP
In short: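 Each value is a fold change relative to the detergent-processed vehicle, calculated per replicate from vsn-normalised intensities. Jurkat crude lysate received eight concentrations (0.1 to 10 mM) for 10 min at room temperature and 3 min at 37 °C, then was solubilised in 0.8% NP40 with benzonase (60 min, 4 °C). The ultracentrifuged supernatant was TMT-labelled and run by LC-MS/MS in three independent experiments.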

Target	NP40-soluble protein abundance (concentration: 1mM)	NP40-soluble protein abundance (concentration: 2mM)	NP40-soluble protein abundance (concentration: 4mM)	NP40-soluble protein abundance (concentration: 6mM)	NP40-soluble protein abundance (concentration: 8mM)	NP40-soluble protein abundance (concentration: 10mM)
A2RQR6 and related entries (UniProt Q96EI5)	1.03 ± 0.025	1.08 ± 0.079	0.988 ± 0.052	1 ± 0.019	1.01 ± 0.014	1.02 ± 0.067
C9JQV3 and related entries (UniProt Q8N1F8)	0.971 ± 0.018	0.999 ± 0.036	1.02 ± 0.016	1.01 ± 0.015	1.03 ± 0.02	1.04 ± 0.034
C9J2P0 and related entries (UniProt P51965)	0.972 ± 0.012	0.9512 ± 0.0055	0.952 ± 0.029	0.9728 ± 0.0083	0.967 ± 0.038	0.958 ± 0.05
C9IYN7 and related entries (UniProt Q0PNE2)	0.944 ± 0.058	0.905 ± 0.071	0.931 ± 0.11	0.949 ± 0.053	0.998 ± 0.07	0.947 ± 0.085
D6R9C7 and related entries (UniProt Q6NW29)	0.98 ± 0.039	0.975 ± 0.034	0.97 ± 0.043	0.95 ± 0.028	0.947 ± 0.043	0.907 ± 0.071
E5RGN3 and related entries (UniProt O00244)	0.961 ± 0.05	1.11 ± 0.094	0.959 ± 0.09	0.934 ± 0.053	0.901 ± 0.059	0.917 ± 0.034
C9JFE4 and related entries (UniProt Q13098)	0.964 ± 0.03	0.961 ± 0.029	0.985 ± 0.065	1.1 ± 0.13	1.11 ± 0.075	1.11 ± 0.11
A6NMT1 and related entries (UniProt Q9BY41)	1 ± 0.011	0.976 ± 0.034	0.9816 ± 0.0018	0.973 ± 0.021	0.984 ± 0.012	0.977 ± 0.024
C9JG32 and related entries (UniProt P43897)	0.979 ± 0.066	1.07 ± 0.22	1.02 ± 0.11	1.16 ± 0.21	1.14 ± 0.14	1.24 ± 0.19
B8ZZA8 and related entries (UniProt O94925)	0.9755 ± 0.0052	0.925 ± 0.048	0.9629 ± 0.0063	0.968 ± 0.031	0.976 ± 0.04	0.955 ± 0.019
C9JYM0 and related entries (UniProt O75817)	0.987 ± 0.029	0.983 ± 0.048	1.04 ± 0.098	1.01 ± 0.038	1.0179 ± 0.0003	1.02 ± 0.047
B4DH23 and related entries (UniProt Q9NTJ4)	0.9663 ± 0.0016	0.95 ± 0.057	0.9488 ± 0.0049	0.9338 ± 0.0091	0.9635 ± 0.0043	0.95107 ± 0.00049
C9JZ81 and related entries (UniProt P13010)	1.014 ± 0.01	0.958 ± 0.049	0.966 ± 0.026	0.972 ± 0.016	0.986 ± 0.013	0.9477 ± 0.0081
B7Z4W5 and related entries (UniProt Q16773+B7Z4W5)	0.933 ± 0.079	0.796 ± 0.15	0.978 ± 0.047	0.994 ± 0.2	1.09 ± 0.17	1.03 ± 0.15
E5RHW4 and related entries (UniProt O94905)	0.989 ± 0.11	0.998 ± 0.077	0.944 ± 0.12	0.96 ± 0.15	0.917 ± 0.11	0.941 ± 0.18
B7ZC38 and related entries (UniProt Q9NR46)	0.964 ± 0.051	1.02 ± 0.086	0.956 ± 0.067	0.953 ± 0.048	0.933 ± 0.075	0.916 ± 0.055
E5RGS2 and related entries (UniProt Q9H6H4)	0.997 ± 0.041	0.997 ± 0.03	0.99 ± 0.03	0.997 ± 0.053	1.02 ± 0.011	1.01 ± 0.017
B3KUS5 and related entries (UniProt Q70CQ3)	0.966 ± 0.032	0.944 ± 0.059	0.97 ± 0.011	0.965 ± 0.026	0.972 ± 0.047	0.952 ± 0.056
C9J066 and related entries (UniProt Q8N4C6)	1.01 ± 0.047	1.02 ± 0.019	0.997 ± 0.031	1.07 ± 0.14	1.08 ± 0.16	1.04 ± 0.12
C4B7M2 and related entries (UniProt Q96JI7)	0.989 ± 0.011	0.988 ± 0.019	0.9763 ± 0.0049	0.985 ± 0.018	0.98 ± 0.023	0.97 ± 0.022
E2QRN4 and related entries (UniProt Q5BKZ1)	1.01 ± 0.13	1.06 ± 0.093	1.03 ± 0.13	1.03 ± 0.14	1.07 ± 0.15	1.12 ± 0.17
RCCD1 (UniProt A6NED2)	1.02 ± 0.028	1.05 ± 0.055	1.03 ± 0.064	1.07 ± 0.057	1.08 ± 0.036	1.09 ± 0.023
B0QXZ5 and related entries (UniProt O96015)	1 ± 0.02	1.01 ± 0.047	0.983 ± 0.018	0.998 ± 0.021	0.996 ± 0.019	0.9826 ± 0.0082
A8MQ02 and related entries (UniProt P55196)	1.03 ± 0.015	1.04 ± 0.02	1.04 ± 0.035	1 ± 0.018	0.991 ± 0.011	1.02 ± 0.027
A6PW57 and related entries (UniProt Q99755)	1.07 ± 0.026	1.04 ± 0.12	1.11 ± 0.067	1.14 ± 0.047	1.16 ± 0.051	1.12 ± 0.03
D3DSM0 and related entries (UniProt P05107)	1.01 ± 0.05	1.08 ± 0.073	1.01 ± 0.043	0.973 ± 0.019	0.961 ± 0.025	0.981 ± 0.04
A9Z1X7 and related entries (UniProt Q8IYB3)	1.03 ± 0.034	1.08 ± 0.11	1.06 ± 0.062	1.1 ± 0.052	1.03 ± 0.077	1.1 ± 0.086
SMCHD1 (UniProt A6NHR9)	1 ± 0.013	0.948 ± 0.11	1.01 ± 0.018	1.01 ± 0.019	1.03 ± 0.016	1.01 ± 0.026
B5ME19 and related entries (UniProt Q99613+B5ME19)	1.06 ± 0.066	1.07 ± 0.062	1.09 ± 0.098	1.15 ± 0.088	1.24 ± 0.12	1.29 ± 0.18
C9JVP0 and related entries (UniProt Q9UPW0)	1.012 ± 0.0019	1.04 ± 0.075	0.9962 ± 0.0041	1 ± 0.029	1.01 ± 0.022	1.04 ± 0.019

As a working copy, some entries already given:
Target	NP40-soluble protein abundance (concentration: 1mM)	NP40-soluble protein abundance (concentration: 2mM)	NP40-soluble protein abundance (concentration: 4mM)	NP40-soluble protein abundance (concentration: 6mM)	NP40-soluble protein abundance (concentration: 8mM)	NP40-soluble protein abundance (concentration: 10mM)
D6R9C7 and related entries (UniProt Q6NW29)	0.98 ± 0.039	0.975 ± 0.034	0.97 ± 0.043	0.95 ± 0.028	0.947 ± 0.043	0.907 ± 0.071
E5RGN3 and related entries (UniProt O00244)	0.961 ± 0.05	1.11 ± 0.094	0.959 ± 0.09	0.934 ± 0.053	0.901 ± 0.059	0.917 ± 0.034
